Data on one compound can be found in US20180228743A1, “COMPOUNDS AND METHODS OF PROMOTING MYELINATION” (Case Western Reserve University, priority 2016, published 2018).

The chains behind the UniProt entries cited, without tags or fusion partners.
UniProt P08912, whole entry: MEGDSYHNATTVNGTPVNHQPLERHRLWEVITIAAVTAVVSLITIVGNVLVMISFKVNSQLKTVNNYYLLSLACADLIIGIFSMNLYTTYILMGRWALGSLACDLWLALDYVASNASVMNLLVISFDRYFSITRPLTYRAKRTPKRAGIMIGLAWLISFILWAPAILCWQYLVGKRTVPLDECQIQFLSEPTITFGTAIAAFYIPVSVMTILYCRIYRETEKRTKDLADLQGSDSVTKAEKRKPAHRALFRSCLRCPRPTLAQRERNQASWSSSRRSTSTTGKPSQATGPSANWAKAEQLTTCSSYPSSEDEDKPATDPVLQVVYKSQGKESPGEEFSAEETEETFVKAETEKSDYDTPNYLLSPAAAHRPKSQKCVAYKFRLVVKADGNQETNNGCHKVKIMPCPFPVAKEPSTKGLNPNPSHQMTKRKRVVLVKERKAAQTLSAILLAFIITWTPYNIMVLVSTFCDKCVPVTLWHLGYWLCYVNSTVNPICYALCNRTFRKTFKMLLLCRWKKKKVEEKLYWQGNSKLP

The structures appear in SMILES notation. Structures can show the parent of a compound that is named as a salt.

One data set addresses T1, EBP (Mus musculus, UniProt P70245).
T1 construct: active EBP was obtained from mouse microsomes; from tissue
T1 sequence (P70245 1-230): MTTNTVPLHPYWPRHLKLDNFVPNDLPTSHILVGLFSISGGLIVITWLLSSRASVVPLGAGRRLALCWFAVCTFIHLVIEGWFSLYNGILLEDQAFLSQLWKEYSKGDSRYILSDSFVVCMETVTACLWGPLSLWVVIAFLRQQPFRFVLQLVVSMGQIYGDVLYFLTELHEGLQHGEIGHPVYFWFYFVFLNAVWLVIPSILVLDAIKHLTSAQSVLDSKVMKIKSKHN
Kind of data set: EBP enzymatic assay (GC/MS). It counts as biochemical. Conditions: 10 μM, zymostenol 25 μM.

In the next data set the target is muscarinic receptor M5 (Homo sapiens, UniProt P08912). To be noted: 2 μM.
A further data set deals with EpiSC-derived OPCs. Kind of data set: High-throughput screening of 3,000 bioactive small molecules for MBP+ oligodendrocyte formation from OPCs. The format is cell-based, mouse. Conditions: 2 μM, 72 h.

With `CN1CCC[C@@H]1CCO[C@](C)(c1ccccc1)c1ccc(Cl)cc1` [Clemastine fumarate], the “inhibition of EBP enzymatic activity” value on EBP was “clear inhibition”. In addition, at muscarinic receptor M5, the “inhibition of muscarinic receptor M5 isoform” value is “near-complete inhibition”. The “cell viability (% relative to DMS0)” value with EpiSC-derived OPCs is recorded as 82.59%.
